Laboratory results: PubChem BioAssay AID1159584 (Peter MacCallum Cancer Centre, 2016)
Screen: 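Genes that CDH1-null MCF10A cells selectively depend on to survive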 (primary screen). Cell system: human MCF10A breast epithelial cells, parental and CDH1-null. Reagents: siRNA against human genes. Measured: 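Cell viability by CellTiter-Glo ATP luminescence, each line scaled to the mean of mock wells across plates, then CDH1-null over parental ratio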. Reading the numbers: CDH1-null / parental viability ratio: higher = CDH1-null cells survive relatively better than parental.
In all, the deposit lists about 18,000 reagents; below is an unselected part. Further read-outs or replicates are left out here. Not stated in the record: the amount of reagent, the time to read-out.

With LSP1 (lymphocyte specific protein 1) [SID152156762], what was measured?
CDH1-null / parental viability ratio: 1.33

What is on record for TMEM26 (transmembrane protein 26) [SID152154173]?
CDH1-null / parental viability ratio: 1.13

What did the screen give for NRCAM (neuronal cell adhesion molecule) [SID135623871]?
CDH1-null / parental viability ratio: 1.08

For NEBL (nebulette) [SID134323853], how do the results read?
CDH1-null / parental viability ratio: 0.95

For NEBL (nebulette) [SID135624842], what was measured?
CDH1-null / parental viability ratio: 1.25

How did the screen score H2AC16 (H2A clustered histone 16) [SID134315771]?
CDH1-null / parental viability ratio: 1.48

How did the screen score FYN (FYN proto-oncogene, Src family tyrosine kinase) [SID135620621]?
CDH1-null / parental viability ratio: 0.96

For SYCP2 (synaptonemal complex protein 2) [SID134324302], what was measured?
CDH1-null / parental viability ratio: 0.81

What is on record for LINC02694 (long independently transcribed non-coding RNA 2694) [SID135625087]?
CDH1-null / parental viability ratio: 1.05

Which result is listed for IL10 (interleukin 10) [SID134310725]?
CDH1-null / parental viability ratio: 1.02

What did the screen give for CALHM5 (calcium homeostasis modulator family member 5) [SID152149745]?
CDH1-null / parental viability ratio: 0.99

How did the screen score ZKSCAN1 (zinc finger with KRAB and SCAN domains 1) [SID152151813]?
CDH1-null / parental viability ratio: 0.88

With TFPI (tissue factor pathway inhibitor) [SID135623872], how do the results read?
CDH1-null / parental viability ratio: 0.79

With EN2 (engrailed homeobox 2) [SID152150682], how do the results read?
CDH1-null / parental viability ratio: 0.92

With TMEM107 (transmembrane protein 107) [SID152152672], how do the results read?
CDH1-null / parental viability ratio: 1.33

With TMEM108 (transmembrane protein 108) [SID135624386], how do the results read?
CDH1-null / parental viability ratio: 0.79

With NSMCE2 (NSE2 SUMO ligase component of SMC5/6 complex) [SID134321961], what was measured?
CDH1-null / parental viability ratio: 1.11

Which result is listed for NALCN (sodium leak channel, non-selective) [SID152147734]?
CDH1-null / parental viability ratio: 1.29

What is on record for LINC00303 (long independently transcribed non-coding RNA 303) [SID135623600]?
CDH1-null / parental viability ratio: 1.24

Which result is listed for RSAD2 (radical S-adenosyl methionine domain containing 2) [SID152154723]?
CDH1-null / parental viability ratio: 0.64

What did the screen give for MMP10 (matrix metallopeptidase 10) [SID134311377]?
CDH1-null / parental viability ratio: 1.5

What did the screen give for TERB2 (telomere repeat binding bouquet formation protein 2) [SID152156417]?
CDH1-null / parental viability ratio: 0.93

How did the screen score SMYD5 (SMYD family member 5) [SID152153471]?
CDH1-null / parental viability ratio: 1.04

With DGKB (diacylglycerol kinase beta) [SID56479090], what does the deposit list?
CDH1-null / parental viability ratio: 1.25

With ARL6IP6 (ARF like GTPase 6 interacting protein 6) [SID152156057], what was measured?
CDH1-null / parental viability ratio: 1.14

Which result is listed for CLYBL (citramalyl-CoA lyase) [SID152152070]?
CDH1-null / parental viability ratio: 0.8

For RNASE10 (ribonuclease A family member 10 (inactive)) [SID135624273], what was measured?
CDH1-null / parental viability ratio: 1.29

Which result is listed for HIVEP3 (HIVEP zinc finger 3) [SID152147127]?
CDH1-null / parental viability ratio: 1.1

What did the screen give for SNX27 (sorting nexin 27) [SID152149866]?
CDH1-null / parental viability ratio: 1.02

How did the screen score DHX32 (DEAH-box helicase 32 (putative)) [SID134310069]?
CDH1-null / parental viability ratio: 1.44

With NOLC1 (nucleolar and coiled-body phosphoprotein 1) [SID152149439], what does the deposit list?
CDH1-null / parental viability ratio: 1.87

With CHAMP1 (chromosome alignment maintaining phosphoprotein 1) [SID134325115], what was measured?
CDH1-null / parental viability ratio: 0.81

How did the screen score VXN (vexin) [SID134319785]?
CDH1-null / parental viability ratio: 0.87

For DOCK10 (dedicator of cytokinesis 10) [SID152147357], what does the deposit list?
CDH1-null / parental viability ratio: 0.93

With DNAJB8 (DnaJ heat shock protein family (Hsp40) member B8) [SID134320849], how do the results read?
CDH1-null / parental viability ratio: 0.92

What is on record for ZNF676 (zinc finger protein 676) [SID152153407]?
CDH1-null / parental viability ratio: 0.77

Which result is listed for CLPB (ClpB family mitochondrial disaggregase) [SID134321129]?
CDH1-null / parental viability ratio: 0.97

What did the screen give for FGD1 (FYVE, RhoGEF and PH domain containing 1) [SID134314341]?
CDH1-null / parental viability ratio: 1.13

How did the screen score SOX2 (SRY-box transcription factor 2) [SID134316096]?
CDH1-null / parental viability ratio: 0.92

How did the screen score PPP2CB (protein phosphatase 2 catalytic subunit beta) [SID135620710]?
CDH1-null / parental viability ratio: 1.03

For RBP4 (retinol binding protein 4) [SID135621545], what was measured?
CDH1-null / parental viability ratio: 0.63

For FTMT (ferritin mitochondrial) [SID134322299], what was measured?
CDH1-null / parental viability ratio: 1.76

How did the screen score ZNF121 (zinc finger protein 121) [SID135625186]?
CDH1-null / parental viability ratio: 0.98

With CCNF (cyclin F) [SID152147986], how do the results read?
CDH1-null / parental viability ratio: 0.97

What did the screen give for KIF17 (kinesin family member 17) [SID134325272]?
CDH1-null / parental viability ratio: 0.93

4 of these entries, reformatted:
Target gene,PubChem SID,CDH1-null / parental viability ratio
CHAMP1 (chromosome alignment maintaining phosphoprotein 1),SID134325115,0.81
VXN (vexin),SID134319785,0.87
DOCK10 (dedicator of cytokinesis 10),SID152147357,0.93
DNAJB8 (DnaJ heat shock protein family (Hsp40) member B8),SID134320849,0.92
